Experiment: Sedative action: Irwin Test (passivity, ataxia)
Conditions: rat, i.p., 80 mg/kg

SMILES: CN(C)CCOC(c1ccccc1)c1ccccc1 [Difenhidramine, reference compound]
- Effect: toxic: Toxic
